Results are percentages, as filed.
The controls that fix the scale are not given in the record; negative values are as filed.
Compounds were drawn at random from those tested, without regard to their results.

By UniProt entry, the sequences of proteins in these tests, tags left out.
UniProt E9BF75, entry or part of it: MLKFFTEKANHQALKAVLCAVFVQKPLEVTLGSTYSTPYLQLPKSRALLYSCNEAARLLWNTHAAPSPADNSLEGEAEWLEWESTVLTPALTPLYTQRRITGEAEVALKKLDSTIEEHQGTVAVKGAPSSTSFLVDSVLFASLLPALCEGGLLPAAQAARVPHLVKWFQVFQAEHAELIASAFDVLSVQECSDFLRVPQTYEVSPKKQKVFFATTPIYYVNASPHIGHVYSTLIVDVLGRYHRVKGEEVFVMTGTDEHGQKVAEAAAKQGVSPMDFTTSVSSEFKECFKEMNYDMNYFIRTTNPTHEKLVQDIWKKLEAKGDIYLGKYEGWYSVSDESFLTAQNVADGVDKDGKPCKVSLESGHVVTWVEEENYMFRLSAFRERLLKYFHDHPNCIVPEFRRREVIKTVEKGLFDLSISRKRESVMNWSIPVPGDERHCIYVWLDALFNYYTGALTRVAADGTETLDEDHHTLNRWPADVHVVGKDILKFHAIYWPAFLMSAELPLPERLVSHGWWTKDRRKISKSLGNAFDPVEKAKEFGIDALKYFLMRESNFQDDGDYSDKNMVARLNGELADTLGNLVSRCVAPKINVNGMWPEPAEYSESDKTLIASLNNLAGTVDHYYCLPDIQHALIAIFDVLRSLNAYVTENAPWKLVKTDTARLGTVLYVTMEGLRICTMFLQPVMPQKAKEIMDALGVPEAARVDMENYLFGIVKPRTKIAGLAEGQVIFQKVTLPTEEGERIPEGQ

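Methionyl-tRNA synthetase (putative), Leishmania donovani (UniProt E9BF75). Primary screen of methionyl-tRNA synthetase; the read-out is not stated. The test concentration is not given. The values are filed as inhibition. About 68,000 compounds were tested under these conditions; 0.035% (about 24) showed 50% or more at least once.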

| # | Compound | inhibition |
|---|---|---|
| 1 | `Cc1n[nH]c(NC(=O)c2ccc(COCC(F)(F)F)cc2)c1C` | 16.52 |
| 2 | `CC(=O)N(Cc1noc(C)n1)C1CCN(Cc2ncc(C(C)C)o2)C1` (stereo not given) | 6.63 |
| 3 | `COc1ccc(CN2CCC(C(N)=O)CC2)cc1SC(F)(F)F` | 12.89 |
| 4 | `COCCCN1CCN(CC2CCCO2)CC1` (stereo not given) | -4.775 |
| 5 | `CCc1nc(CN2CCCN(C(=O)C(C)n3ccnc3)CC2)cs1` (stereo not given) | 15.79 |
| 6 | `O=C(CCN1CCCCO1)NCCSc1cnn[nH]1` | 13.87 |
| 7 | `c1ccc2c(OCCN3CCn4c(nnc4C4CC4)C3)cccc2c1` | 15.32 |
| 8 | `COc1ccc2c(c1)C(=O)NC1(CC2)CCN(Cc2cccnc2)C1` (stereo not given) | 11.49 |
| 9 | `CC1CN(C)c2ccccc2N(C(=O)c2ccc(=O)n(C)c2)C1` (stereo not given) | 16.2 |
| 10 | `CC(C)Oc1ccc(C(=O)N2CCCSCC2CN(C)C)cc1` (stereo not given) | 12.58 |
| 11 | `COc1ccccc1CC(=O)NS(=O)(=O)c1ccc(C(N)=O)cc1` | 5.263 |
| 12 | `NC(=O)NC(=O)CNc1cccc(C(=O)c2ccccc2)c1` | -1.344 |
| 13 | `O=C(O)c1cccc(CC2CCN(c3ncc(F)cn3)CC2)c1` | 2.405 |
| 14 | `c1ccc(-n2ccc(CN3CCCCC3Cn3cncn3)n2)cc1` (stereo not given) | 17.61 |
| 15 | `COc1ccccc1CN1CCCC(n2cccn2)C1` (stereo not given) | -2.618 |
| 16 | `CN(C)S(=O)(=O)NC(=O)CC(c1ccccc1)C(F)(F)F` (stereo not given) | 6.812 |
| 17 | `CN(Cc1ccccc1O)C(=O)Nc1cc(F)cc(N2CCCC2)c1` | 12.1 |
| 18 | `CCn1ncc(CNc2[nH]cnc3nncc2-3)c1C` | 15.26 |
| 19 | `CC(=O)N1CCCN(C(=O)NCc2ccccn2)CC1` | 7.874 |
| 20 | `CN1CCC2(CC1)CN(Cc1ccc(C3CCCCO3)o1)CCCN2C` (stereo not given) | 16.31 |
| 21 | `COc1cc(CNCc2ccnc(N3CCCC3)c2)cc(OC)c1` | 21.7 |
| 22 | `CC(=O)c1ccccc1-c1nc(CC2CCN(C)CC2)no1` | 10.08 |
| 23 | `CCN(CC)S(=O)(=O)c1ccc(C(=O)NC(C)(C#N)C2CC2)cc1` (stereo not given) | 4.178 |
| 24 | `Cn1cccc1C(O)CNC(=O)COc1ccccc1F` (stereo not given) | 10.79 |
| 25 | `Cc1ccn(-c2cccc(C(=O)N3CCCC(n4ccnc4C)C3)c2)n1` (stereo not given) | 8.711 |
| 26 | `CCOC[C@@H]1CC[C@H]2[C@H](CCN2S(=O)(=O)Cc2ccccc2)O1` | 7.299 |
| 27 | `Cc1cccn2cc(CNS(=O)(=O)N3CCOCC3)nc12` | 12.61 |
| 28 | `COCc1nc(N(C)C)ncc1C(=O)NC(C)C` | 7.884 |
| 29 | `O=C(CCN1CCCCO1)N1CC[C@H](O)[C@@H](O)C1` | -7.599 |
| 30 | `O=C(CC1CCC2(CC1)CCN(Cc1cccnc1)CC2)N1CC=CC1` | 9.645 |
| 31 | `Cc1nc[nH]c1C(=O)N1CCC2(CC1)CN(CCN(C)C)C(=O)O2` | 0.9639 |
| 32 | `FC1(F)CCN(c2ccccc2)CC12CCN(c1ncccn1)C2` (stereo not given) | 11.5 |
| 33 | `Cn1ccnc1CN1CCN(c2ccc(C#N)cn2)CC1` | 14.29 |
| 34 | `Cc1ccc(CN(CCN(C)C)Cc2ccnn2C2CCCCO2)o1` (stereo not given) | 10.64 |
| 35 | `COc1ccc(CC(=O)N2CCCC(n3nc(C)cc3C)C2)cc1F` (stereo not given) | 9.296 |
| 36 | `Cc1csc(CN2CC[C@H]3C[C@H](C)O[C@@H]3C2)n1` | 18.75 |
| 37 | `CC(C)[C@H]1COC(=O)N1Cc1nncn1C(C)C` | 11.54 |
| 38 | `Cc1ccc(S(=O)(=O)NC[C@H]2OC[C@@H](NCc3ccccn3)[C@@H]2O)cc1` | -1.017 |
| 39 | `O=C(NCc1cccs1)[C@H]1CC[C@@H]2[C@@H](CCN2Cc2ccoc2)O1` | 19.29 |
| 40 | `CC(C)c1nc2c(n1C)CCN(CC(=O)Nc1nccs1)C2` | 10.42 |
| 41 | `CC1CN(C)CCN1C(=O)c1cnn(-c2cccc(Cl)c2)c1` (stereo not given) | 7.692 |
| 42 | `CN(CC(=O)N1CCCCC1Cn1cccn1)C1CC1` (stereo not given) | 0.2817 |
| 43 | `CC(=O)N1CCc2nc3sc(C(N)=O)c(N)c3c(C(F)(F)F)c2C1` | 14.29 |
| 44 | `O=C1COC2(COCCN(Cc3ccsc3)C2)CN1c1ccoc1` (stereo not given) | 4.575 |
| 45 | `c1ccc(O[C@H]2CC[C@H]3[C@H]2OCCN3Cc2nccs2)nc1` | 11.02 |
| 46 | `Cc1nc(CNCC2CN(C3CC3)CCO2)cs1` (stereo not given) | 3.977 |
| 47 | `CCCc1nnc(N2C[C@@H](C)[C@@](C)(O)C2)s1` | 0.9174 |
| 48 | `CN(C)c1ccc(C(=O)N2CCN(Cc3cscn3)CC2)cn1` | 21.31 |
| 49 | `CNS(=O)(=O)c1ccc(CN2CCN(Cc3ncccc3C)CC2)cc1` | 2.507 |
| 50 | `CCN1CCC2(CC1)NC(=O)c1cc(Br)ccc1-n1nnnc12` | 9.399 |
| 51 | `CC(C)Cn1ncc(C(=O)NS(=O)(=O)c2ccccc2)c1C1CC1` | 3.081 |
| 52 | `Cc1nnc2n1CCN(CC(=O)NC(C)c1ccc3ccccc3c1)C2` (stereo not given) | 14.97 |
| 53 | `Cc1cccc(OC2CCN(Cc3ncc[nH]3)CC2)c1` | 8.13 |
| 54 | `CCOCCN(C)C(=O)Nc1cccc2c1CCN(CC)C2` | 10.61 |
| 55 | `CCN(CC1CCOC1)C(=O)c1cc(Cl)c2c(c1)OCO2` (stereo not given) | 2.135 |
| 56 | `CN(CC(=O)N(C)C)Cc1ccc(C#N)cc1F` | 0.8219 |
| 57 | `Cc1cc(C)n(C2CN(CCC(=O)NCCc3ccccc3)C2)n1` | 28.57 |
| 58 | `CCC(CO)N(Cc1ccco1)Cc1c(C)nn(C)c1Cl` (stereo not given) | 15.19 |
| 59 | `Cc1cc(C)c2[nH]c(=O)c(CN3CCC(O)(CN(C)C)C3)cc2c1` (stereo not given) | 21.35 |
| 60 | `Cc1ccc(CN2CC[C@H]3OCC[C@@H](C(=O)NC4CC4)[C@@H]3C2)o1` | 6.397 |
| 61 | `CC1(C)CNC(=O)CN(C(=O)Cc2ccccc2)C1` | 5.676 |
| 62 | `Cc1cccc(NCc2ncc(C(C)(C)C)o2)c1` | 12.23 |

4 of the entries, repeated:

Compound	inhibition
CNS(=O)(=O)c1ccc(CN2CCN(Cc3ncccc3C)CC2)cc1	2.507
CCCc1nnc(N2C[C@@H](C)[C@@](C)(O)C2)s1	0.9174
Cc1nnc2n1CCN(CC(=O)NC(C)c1ccc3ccccc3c1)C2 (stereo not given)	14.97
Cc1cccc(OC2CCN(Cc3ncc[nH]3)CC2)c1	8.13

Source: ChEMBL document CHEMBL3988442, “University of Dundee, Small-Polar-MMV Screening Library” (2021).